Data taken from the supplement of paper PMC10849652.
Some of the results follow.

Amino acid sequences for entries named in this document (tags omitted). A change or cut given only in a name is not applied to a line headed by its entry.
UniProt Q9NP79: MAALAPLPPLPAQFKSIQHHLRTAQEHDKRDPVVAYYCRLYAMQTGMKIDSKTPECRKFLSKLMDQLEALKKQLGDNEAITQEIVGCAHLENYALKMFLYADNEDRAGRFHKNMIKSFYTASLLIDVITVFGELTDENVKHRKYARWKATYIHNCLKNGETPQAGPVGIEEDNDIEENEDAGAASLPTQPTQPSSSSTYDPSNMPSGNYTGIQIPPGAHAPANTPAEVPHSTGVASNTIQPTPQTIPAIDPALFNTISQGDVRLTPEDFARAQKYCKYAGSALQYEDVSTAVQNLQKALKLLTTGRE
UniProt Q9UK41: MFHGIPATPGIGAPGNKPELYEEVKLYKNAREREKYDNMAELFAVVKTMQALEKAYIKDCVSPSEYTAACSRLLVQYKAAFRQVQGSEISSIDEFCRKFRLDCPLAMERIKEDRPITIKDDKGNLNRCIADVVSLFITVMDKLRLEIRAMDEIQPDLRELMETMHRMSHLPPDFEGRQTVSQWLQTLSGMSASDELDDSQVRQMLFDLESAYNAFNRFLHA
UniProt O75554: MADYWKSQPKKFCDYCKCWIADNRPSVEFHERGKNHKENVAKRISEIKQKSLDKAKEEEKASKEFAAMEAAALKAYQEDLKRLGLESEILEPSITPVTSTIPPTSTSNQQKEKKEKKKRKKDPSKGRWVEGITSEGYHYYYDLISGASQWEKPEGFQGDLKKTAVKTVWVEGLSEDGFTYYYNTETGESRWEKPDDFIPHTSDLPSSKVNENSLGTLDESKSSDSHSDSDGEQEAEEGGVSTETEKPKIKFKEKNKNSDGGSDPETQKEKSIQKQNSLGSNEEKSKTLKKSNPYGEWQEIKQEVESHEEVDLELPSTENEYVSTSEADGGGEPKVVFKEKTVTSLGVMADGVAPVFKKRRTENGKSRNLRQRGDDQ
UniProt Q9H267: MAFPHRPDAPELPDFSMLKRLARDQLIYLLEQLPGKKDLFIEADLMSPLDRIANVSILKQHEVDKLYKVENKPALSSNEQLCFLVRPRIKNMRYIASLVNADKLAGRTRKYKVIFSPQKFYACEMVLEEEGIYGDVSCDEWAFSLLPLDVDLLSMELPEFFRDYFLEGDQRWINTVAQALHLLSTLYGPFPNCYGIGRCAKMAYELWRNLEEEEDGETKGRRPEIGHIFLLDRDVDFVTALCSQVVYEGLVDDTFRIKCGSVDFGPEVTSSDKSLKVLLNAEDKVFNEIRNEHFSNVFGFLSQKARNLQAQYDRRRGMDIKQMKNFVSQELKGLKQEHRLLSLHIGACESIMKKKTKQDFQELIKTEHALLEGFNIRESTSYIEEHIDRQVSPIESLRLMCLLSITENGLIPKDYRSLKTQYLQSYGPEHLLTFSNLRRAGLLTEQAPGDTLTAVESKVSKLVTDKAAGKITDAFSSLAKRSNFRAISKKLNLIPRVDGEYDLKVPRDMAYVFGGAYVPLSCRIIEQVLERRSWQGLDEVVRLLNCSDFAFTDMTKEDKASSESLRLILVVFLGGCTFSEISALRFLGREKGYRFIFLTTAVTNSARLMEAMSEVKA
UniProt Q8IWB7: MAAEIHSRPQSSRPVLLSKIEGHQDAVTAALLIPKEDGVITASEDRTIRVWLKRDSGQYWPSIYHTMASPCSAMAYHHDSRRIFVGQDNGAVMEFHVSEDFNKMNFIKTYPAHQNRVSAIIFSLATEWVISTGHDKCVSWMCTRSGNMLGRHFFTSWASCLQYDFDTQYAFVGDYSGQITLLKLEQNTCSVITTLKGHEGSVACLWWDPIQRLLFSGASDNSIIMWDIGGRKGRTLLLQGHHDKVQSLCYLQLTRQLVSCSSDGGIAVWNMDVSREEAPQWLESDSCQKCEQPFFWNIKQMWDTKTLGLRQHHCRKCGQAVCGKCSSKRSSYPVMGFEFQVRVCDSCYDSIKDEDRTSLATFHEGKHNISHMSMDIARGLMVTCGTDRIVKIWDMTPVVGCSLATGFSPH
UniProt Q8NEZ2: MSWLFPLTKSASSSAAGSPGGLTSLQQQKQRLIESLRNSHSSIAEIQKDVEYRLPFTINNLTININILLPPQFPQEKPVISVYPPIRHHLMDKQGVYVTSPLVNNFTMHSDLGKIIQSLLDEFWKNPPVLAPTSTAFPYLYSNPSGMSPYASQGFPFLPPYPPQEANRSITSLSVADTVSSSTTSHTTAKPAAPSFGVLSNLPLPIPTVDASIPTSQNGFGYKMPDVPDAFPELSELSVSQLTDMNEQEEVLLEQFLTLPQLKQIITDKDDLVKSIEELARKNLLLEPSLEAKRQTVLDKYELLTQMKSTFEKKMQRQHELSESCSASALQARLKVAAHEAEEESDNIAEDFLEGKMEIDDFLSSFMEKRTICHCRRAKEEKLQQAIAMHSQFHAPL
UniProt Q969T9: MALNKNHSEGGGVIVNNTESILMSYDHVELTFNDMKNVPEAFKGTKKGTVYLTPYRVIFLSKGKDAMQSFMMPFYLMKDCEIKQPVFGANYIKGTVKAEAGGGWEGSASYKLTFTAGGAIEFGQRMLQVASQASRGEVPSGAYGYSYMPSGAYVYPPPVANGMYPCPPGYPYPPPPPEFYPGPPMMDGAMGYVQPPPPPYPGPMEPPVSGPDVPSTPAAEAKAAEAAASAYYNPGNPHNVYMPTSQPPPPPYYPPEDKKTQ
UniProt P04004: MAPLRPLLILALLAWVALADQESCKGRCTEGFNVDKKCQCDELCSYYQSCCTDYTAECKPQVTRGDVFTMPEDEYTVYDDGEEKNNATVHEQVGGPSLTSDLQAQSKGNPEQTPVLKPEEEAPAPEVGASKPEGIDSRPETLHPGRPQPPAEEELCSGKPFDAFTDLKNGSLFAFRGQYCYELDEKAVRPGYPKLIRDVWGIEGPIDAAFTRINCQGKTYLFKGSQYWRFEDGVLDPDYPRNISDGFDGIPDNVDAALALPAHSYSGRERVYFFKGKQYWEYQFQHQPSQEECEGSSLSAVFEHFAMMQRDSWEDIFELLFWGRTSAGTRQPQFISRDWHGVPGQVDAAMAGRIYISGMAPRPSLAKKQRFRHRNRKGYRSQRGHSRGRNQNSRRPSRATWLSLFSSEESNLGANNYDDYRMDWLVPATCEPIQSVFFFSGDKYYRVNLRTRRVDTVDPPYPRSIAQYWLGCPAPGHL
UniProt Q5MNZ6: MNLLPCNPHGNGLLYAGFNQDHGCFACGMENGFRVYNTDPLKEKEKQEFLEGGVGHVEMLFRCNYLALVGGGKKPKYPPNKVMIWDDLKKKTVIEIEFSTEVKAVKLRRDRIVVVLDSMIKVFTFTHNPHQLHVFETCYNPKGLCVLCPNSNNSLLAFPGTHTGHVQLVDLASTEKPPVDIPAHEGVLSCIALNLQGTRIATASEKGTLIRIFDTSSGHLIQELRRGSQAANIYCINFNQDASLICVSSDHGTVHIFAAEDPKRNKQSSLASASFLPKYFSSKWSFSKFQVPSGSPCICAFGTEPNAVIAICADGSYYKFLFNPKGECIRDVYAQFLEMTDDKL
UniProt P49754: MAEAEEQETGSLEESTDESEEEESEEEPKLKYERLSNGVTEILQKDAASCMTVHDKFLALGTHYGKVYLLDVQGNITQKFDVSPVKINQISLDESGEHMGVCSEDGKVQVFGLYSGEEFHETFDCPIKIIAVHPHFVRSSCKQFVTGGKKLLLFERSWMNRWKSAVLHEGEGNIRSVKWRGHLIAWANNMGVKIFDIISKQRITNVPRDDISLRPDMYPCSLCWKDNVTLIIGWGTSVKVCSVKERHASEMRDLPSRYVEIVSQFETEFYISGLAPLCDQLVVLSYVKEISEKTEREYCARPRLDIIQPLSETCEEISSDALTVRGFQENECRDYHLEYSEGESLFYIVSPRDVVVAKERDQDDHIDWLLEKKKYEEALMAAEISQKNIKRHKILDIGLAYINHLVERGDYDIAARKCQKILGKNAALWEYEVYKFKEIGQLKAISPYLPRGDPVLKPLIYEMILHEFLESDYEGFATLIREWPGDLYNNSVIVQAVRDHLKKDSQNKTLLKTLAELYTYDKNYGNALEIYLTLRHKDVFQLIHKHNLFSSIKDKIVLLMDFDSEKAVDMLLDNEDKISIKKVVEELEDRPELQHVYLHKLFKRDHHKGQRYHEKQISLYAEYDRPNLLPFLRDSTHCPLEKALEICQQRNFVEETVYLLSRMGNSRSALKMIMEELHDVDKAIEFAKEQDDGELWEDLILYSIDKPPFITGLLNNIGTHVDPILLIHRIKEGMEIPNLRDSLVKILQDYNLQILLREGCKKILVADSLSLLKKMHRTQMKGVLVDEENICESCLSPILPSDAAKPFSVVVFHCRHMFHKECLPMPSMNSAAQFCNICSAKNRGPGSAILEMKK
UniProt Q9Y4P8: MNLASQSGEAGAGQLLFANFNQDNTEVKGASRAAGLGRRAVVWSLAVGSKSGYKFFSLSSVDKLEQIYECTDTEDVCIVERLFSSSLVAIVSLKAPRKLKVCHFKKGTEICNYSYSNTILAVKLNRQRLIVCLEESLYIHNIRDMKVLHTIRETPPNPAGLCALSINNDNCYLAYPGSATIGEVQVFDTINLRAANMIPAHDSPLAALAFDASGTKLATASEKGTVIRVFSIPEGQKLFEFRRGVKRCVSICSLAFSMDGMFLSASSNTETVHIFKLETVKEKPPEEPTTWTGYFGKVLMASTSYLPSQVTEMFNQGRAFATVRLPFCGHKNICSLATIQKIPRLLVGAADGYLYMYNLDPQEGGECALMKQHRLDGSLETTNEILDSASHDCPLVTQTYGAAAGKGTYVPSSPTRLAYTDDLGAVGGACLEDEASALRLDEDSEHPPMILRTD
UniProt Q8N9V3: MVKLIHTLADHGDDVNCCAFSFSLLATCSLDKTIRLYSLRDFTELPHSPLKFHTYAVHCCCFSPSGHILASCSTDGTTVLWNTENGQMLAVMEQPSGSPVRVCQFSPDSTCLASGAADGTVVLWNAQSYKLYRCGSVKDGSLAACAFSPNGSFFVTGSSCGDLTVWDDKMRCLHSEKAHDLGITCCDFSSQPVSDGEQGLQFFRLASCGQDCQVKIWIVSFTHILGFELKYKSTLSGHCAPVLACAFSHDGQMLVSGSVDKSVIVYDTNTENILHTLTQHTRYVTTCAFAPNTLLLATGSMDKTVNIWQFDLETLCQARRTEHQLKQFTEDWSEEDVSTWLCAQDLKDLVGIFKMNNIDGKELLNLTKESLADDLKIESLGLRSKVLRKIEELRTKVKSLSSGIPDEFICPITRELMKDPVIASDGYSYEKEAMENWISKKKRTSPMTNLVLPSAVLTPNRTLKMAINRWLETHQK
UniProt Q9Y4E1, whole entry, looked up: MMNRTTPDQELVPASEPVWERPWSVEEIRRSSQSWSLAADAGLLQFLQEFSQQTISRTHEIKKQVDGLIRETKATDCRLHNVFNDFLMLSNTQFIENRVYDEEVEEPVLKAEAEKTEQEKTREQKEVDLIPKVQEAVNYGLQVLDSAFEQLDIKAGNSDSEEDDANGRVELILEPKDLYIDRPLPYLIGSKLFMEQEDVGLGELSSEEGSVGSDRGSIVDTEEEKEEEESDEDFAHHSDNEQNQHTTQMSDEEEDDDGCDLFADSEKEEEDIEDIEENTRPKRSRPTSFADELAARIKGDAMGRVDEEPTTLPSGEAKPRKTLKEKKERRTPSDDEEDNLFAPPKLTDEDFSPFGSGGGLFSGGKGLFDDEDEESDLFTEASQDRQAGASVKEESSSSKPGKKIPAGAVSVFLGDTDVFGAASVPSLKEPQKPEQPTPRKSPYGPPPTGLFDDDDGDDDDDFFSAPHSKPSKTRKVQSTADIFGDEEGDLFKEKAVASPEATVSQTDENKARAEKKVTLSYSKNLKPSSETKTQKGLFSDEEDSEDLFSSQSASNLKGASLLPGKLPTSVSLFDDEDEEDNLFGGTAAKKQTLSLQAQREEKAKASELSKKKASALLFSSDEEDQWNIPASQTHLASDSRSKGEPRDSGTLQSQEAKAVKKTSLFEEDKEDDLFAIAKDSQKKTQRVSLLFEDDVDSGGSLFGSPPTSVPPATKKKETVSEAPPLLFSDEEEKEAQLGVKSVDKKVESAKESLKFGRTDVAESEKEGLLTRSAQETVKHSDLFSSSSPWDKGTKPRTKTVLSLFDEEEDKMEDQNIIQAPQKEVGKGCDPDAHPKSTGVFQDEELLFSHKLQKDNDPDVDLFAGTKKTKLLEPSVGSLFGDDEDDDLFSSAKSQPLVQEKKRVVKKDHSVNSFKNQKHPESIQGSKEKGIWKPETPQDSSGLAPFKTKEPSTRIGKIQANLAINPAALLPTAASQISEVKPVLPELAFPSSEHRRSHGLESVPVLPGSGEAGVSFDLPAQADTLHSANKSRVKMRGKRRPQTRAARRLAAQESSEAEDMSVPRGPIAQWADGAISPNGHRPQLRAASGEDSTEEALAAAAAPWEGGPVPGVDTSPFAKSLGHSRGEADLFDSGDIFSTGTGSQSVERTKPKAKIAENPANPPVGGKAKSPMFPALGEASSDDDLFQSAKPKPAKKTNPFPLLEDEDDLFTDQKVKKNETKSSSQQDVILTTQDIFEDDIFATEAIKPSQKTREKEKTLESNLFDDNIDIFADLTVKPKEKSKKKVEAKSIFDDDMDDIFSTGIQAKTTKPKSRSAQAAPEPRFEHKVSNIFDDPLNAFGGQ

What was measured:
Experiment in all cases: log2 fold change, soluble protein after heating vs DMSO (PISA); higher = thermal stabilisation; K562 lysate, 10 uM; active = over 0.2 and 3.5 SD of the protein, either way, in both replicates (recomputed)
lapatinib = compound: CS(=O)(=O)CCNCc1ccc(-c2ccc3ncnc(Nc4ccc(OCc5cccc(F)c5)c(Cl)c4)c3c2)o1 [lapatinib]
How it was run: (§1)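 Log-two fold change in thermal stability relative to solvent controls is reported from duplicates. For each sample, crude K562 extract from dounce-homogenised pellets in PBS pH 7.4 with 1 mM MgCl2, at 1 mg/mL protein, was treated with 10 μM compound for 30 min. Aliquots heated for 3 min across 48°C-58°C were pooled, brought to 0.5% NP-40 at 4°C and cleared at 21,000xg for 90 min. The supernatant was quantified by TMTpro 16plex LC-MS/MS with channel sums equalised.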

pictilisib = compound: CS(=O)(=O)N1CCN(Cc2cc3nc(-c4cccc5[nH]ncc45)nc(N4CCOCC4)c3s2)CC1 [pictilisib]
How it was run: as §1

crizotinib = compound: C[C@@H](Oc1cc(-c2cnn(C3CCNCC3)c2)cnc1N)c1c(Cl)ccc(F)c1Cl [crizotinib]
How it was run: as §1

[1] = compound: C[C@H](C1=CC=C(C=C1)C(=O)NC2=C3C=CNC3=NC=C2)N
How it was run: as §1

duvelisib = compound: C[C@H](Nc1ncnc2nc[nH]c12)c1cc2cccc(Cl)c2c(=O)n1-c1ccccc1 [duvelisib]
How it was run: as §1

gandotinib = compound: Cc1cc(Nc2cc(CN3CCOCC3)c3nc(C)c(Cc4ccc(Cl)cc4F)n3n2)n[nH]1 [gandotinib]
How it was run: as §1

tozasertib = compound: Cc1cc(Nc2cc(N3CCN(C)CC3)nc(Sc3ccc(NC(=O)C4CC4)cc3)n2)n[nH]1 [tozasertib]
How it was run: as §1

doramapimod = compound: Cc1ccc(-n2nc(C(C)(C)C)cc2NC(=O)Nc2ccc(OCCN3CCOCC3)c3ccccc23)cc1 [doramapimod]
How it was run: as §1

bafetinib = compound: Cc1ccc(NC(=O)c2ccc(CN3CC[C@H](N(C)C)C3)c(C(F)(F)F)c2)cc1Nc1nccc(-c2cncnc2)n1 [bafetinib]
How it was run: as §1

[2] = compound: Cc1cccc(CC(=O)N2CCc3c2ccc(-c2cn(C)c4ncnc(N)c24)c3F)n1
How it was run: as §1

Measured: log2 fold change

VKORC1L1, A0A3B3ISV4
inactive: lapatinib -0.013 | pictilisib -0.085 | crizotinib 0.043 | [1] -0.096 | duvelisib 0.015 | gandotinib -0.006 | tozasertib -0.051 | doramapimod -0.011 | bafetinib -0.014 | [2] 0.024

VWA5A (UniProt O00534)
inactive: lapatinib -0.027 | pictilisib -0.039 | crizotinib -0.001 | [1] -0.136 | duvelisib -0.035 | gandotinib 0.054 | tozasertib 0.009 | doramapimod -0.002 | bafetinib -0.01 | [2] 0.048

VTA1 (UniProt Q9NP79)
inactive: lapatinib -0.001 | pictilisib -0.027 | crizotinib 0.032 | [1] 0.033 | duvelisib -0.045 | gandotinib -0.067 | tozasertib -0.001 | doramapimod 0 | bafetinib 0.092 | [2] -0.09

VPS29 isoform 2 (UniProt Q9UBQ0)
inactive: lapatinib 0.015 | pictilisib -0.06 | crizotinib 0.001 | [1] -0.007 | duvelisib -0.041 | gandotinib -0.025 | tozasertib -0.029 | doramapimod 0.005 | bafetinib 0.051 | [2] -0.011

VPS13B (UniProt Q7Z7G8)
inactive: lapatinib -0.013 | pictilisib -0.004 | crizotinib 0.01 | [1] -0.042 | duvelisib 0.007 | gandotinib -0.037 | tozasertib -0.06 | doramapimod -0.075 | bafetinib -0.067 | [2] 0.109

WIPI1 (UniProt Q5MNZ9)
inactive: lapatinib -0.021 | pictilisib -0.003 | crizotinib 0.058 | [1] -0.013 | duvelisib -0.014 | gandotinib 0.017 | tozasertib 0.039 | doramapimod -0.013 | bafetinib -0.038 | [2] -0.038

VPS28 (UniProt Q9UK41)
inactive: lapatinib 0.038 | pictilisib -0.005 | crizotinib 0.051 | [1] -0.132 | duvelisib -0.032 | gandotinib 0.018 | tozasertib -0.03 | doramapimod -0.005 | bafetinib 0.034 | [2] 0.034

VPS26C (UniProt O14972)
inactive: lapatinib -0.017 | pictilisib -0.012 | crizotinib -0.059 | [1] -0.167 | duvelisib 0.215 | gandotinib 0.001 | tozasertib 0.023 | doramapimod 0.086 | bafetinib -0.156 | [2] 0.064

WBP4 (UniProt O75554)
inactive: lapatinib 0.018 | pictilisib 0.004 | crizotinib -0.004 | [1] -0.021 | duvelisib 0.069 | gandotinib 0.041 | tozasertib -0.011 | doramapimod -0.009 | bafetinib 0.023 | [2] 0.042

VPS33B (UniProt Q9H267)
inactive: lapatinib 0.011 | pictilisib -0.01 | crizotinib 0.008 | [1] 0.001 | duvelisib -0.001 | gandotinib -0.045 | tozasertib 0.006 | doramapimod -0.01 | bafetinib -0.04 | [2] 0.03

WDFY1 (UniProt Q8IWB7)
inactive: lapatinib 0.035 | pictilisib 0.002 | crizotinib 0.012 | [1] -0.006 | duvelisib 0.079 | gandotinib 0.104 | tozasertib 0.003 | doramapimod 0.06 | bafetinib -0.007 | [2] 0.032

WRNIP1 (UniProt Q96S55)
inactive: lapatinib -0.021 | pictilisib -0.043 | crizotinib 0 | [1] 0.054 | duvelisib 0.012 | gandotinib -0.047 | tozasertib 0.022 | doramapimod 0.001 | bafetinib -0.043 | [2] 0.045

WAC (UniProt Q9BTA9)
inactive: lapatinib 0.005 | pictilisib -0.04 | crizotinib 0.018 | [1] 0 | duvelisib -0.005 | gandotinib -0.014 | tozasertib 0.004 | doramapimod -0.031 | bafetinib -0.057 | [2] 0.043

VPS37A (UniProt Q8NEZ2)
inactive: lapatinib 0.017 | pictilisib -0.085 | crizotinib 0.007 | [1] 0.078 | duvelisib 0.04 | gandotinib -0.099 | tozasertib 0.053 | doramapimod 0.011 | bafetinib 0.063 | [2] 0.011

VPS25 (UniProt Q9BRG1)
inactive: lapatinib -0.012 | pictilisib 0.008 | crizotinib 0.028 | [1] 0.17 | duvelisib -0.018 | gandotinib -0.069 | tozasertib -0.029 | doramapimod -0.025 | bafetinib -0.046 | [2] -0.038

WBP2 (UniProt Q969T9)
inactive: lapatinib 0.017 | pictilisib 0.03 | crizotinib 0.071 | [1] 0.121 | duvelisib 0.02 | gandotinib -0.047 | tozasertib 0.008 | doramapimod -0.023 | bafetinib 0.055 | [2] -0.113

VTN (UniProt P04004)
active: [1] -0.384
inactive: lapatinib -0.057 | pictilisib 0.026 | crizotinib 0.019 | duvelisib 0.018 | gandotinib 0.164 | tozasertib -0.006 | doramapimod -0.023 | bafetinib -0.054 | [2] 0.148

WIPF3 (UniProt A6NGB9)
inactive: lapatinib 0.008 | pictilisib 0.004 | crizotinib 0.019 | [1] -0.071 | duvelisib -0.048 | gandotinib 0.054 | tozasertib -0.019 | doramapimod -0.005 | bafetinib 0.015 | [2] 0.049

WDR45B (UniProt Q5MNZ6)
inactive: lapatinib -0.007 | pictilisib -0.014 | crizotinib 0.006 | [1] -0.036 | duvelisib 0.035 | gandotinib 0.037 | tozasertib -0.054 | doramapimod -0.04 | bafetinib 0.028 | [2] 0.03

VPS41 (UniProt P49754)
inactive: lapatinib -0.018 | pictilisib -0.046 | crizotinib -0.011 | [1] 0.079 | duvelisib -0.021 | gandotinib -0.093 | tozasertib 0.047 | doramapimod 0.023 | bafetinib -0.021 | [2] -0.05

WIPI2 (UniProt Q9Y4P8)
inactive: lapatinib 0.006 | pictilisib -0.024 | crizotinib -0.02 | [1] -0.086 | duvelisib -0.008 | gandotinib 0.089 | tozasertib -0.003 | doramapimod 0.098 | bafetinib -0.025 | [2] 0.035

Two neighbouring entries from above, for reference:
VPS29 isoform 2 (UniProt Q9UBQ0)
inactive: lapatinib 0.015 | pictilisib -0.06 | crizotinib 0.001 | [1] -0.007 | duvelisib -0.041 | gandotinib -0.025 | tozasertib -0.029 | doramapimod 0.005 | bafetinib 0.051 | [2] -0.011

VPS13B (UniProt Q7Z7G8)
inactive: lapatinib -0.013 | pictilisib -0.004 | crizotinib 0.01 | [1] -0.042 | duvelisib 0.007 | gandotinib -0.037 | tozasertib -0.06 | doramapimod -0.075 | bafetinib -0.067 | [2] 0.109

Later entries:

WDR41 (UniProt Q9HAD4)
active: doramapimod 0.241
inactive: lapatinib 0.013 | pictilisib 0.099 | crizotinib 0.022 | [1] -0.037 | duvelisib -0.026 | gandotinib 0.149 | tozasertib -0.069 | bafetinib -0.065 | [2] 0.126

WDSUB1 (UniProt Q8N9V3)
inactive: lapatinib 0 | pictilisib 0.012 | crizotinib 0.003 | [1] -0.06 | duvelisib -0.02 | gandotinib 0.074 | tozasertib -0.007 | doramapimod 0.009 | bafetinib -0.047 | [2] 0.038

WDR70 (UniProt Q9NW82)
inactive: lapatinib 0.021 | pictilisib 0.004 | crizotinib 0.008 | [1] 0.032 | duvelisib 0.003 | gandotinib 0.052 | tozasertib -0.01 | doramapimod 0.001 | bafetinib -0.005 | [2] -0.067

VPS4A (UniProt Q9UN37)
inactive: lapatinib 0.003 | pictilisib -0.034 | crizotinib -0.034 | [1] -0.042 | duvelisib -0.012 | gandotinib -0.066 | tozasertib 0.007 | doramapimod 0.038 | bafetinib 0.004 | [2] 0.056

VPS35L (UniProt Q7Z3J2)
inactive: lapatinib -0.016 | pictilisib -0.003 | crizotinib -0.028 | [1] -0.025 | duvelisib 0.02 | gandotinib -0.029 | tozasertib 0.026 | doramapimod 0.02 | bafetinib -0.052 | [2] 0.065

XIAP (UniProt P98170)
inactive: lapatinib 0.023 | pictilisib -0.019 | crizotinib -0.03 | [1] -0.062 | duvelisib 0.005 | gandotinib 0.03 | tozasertib 0.006 | doramapimod 0.046 | bafetinib -0.011 | [2] 0.102

WASHC2C (UniProt Q9Y4E1)
inactive: lapatinib -0.01 | pictilisib -0.026 | crizotinib -0.05 | [1] -0.081 | duvelisib 0.011 | gandotinib 0.128 | tozasertib 0.046 | doramapimod 0.027 | bafetinib 0.03 | [2] 0.126

WDR46 (UniProt O15213)
inactive: lapatinib -0.027 | pictilisib 0.034 | crizotinib -0.02 | [1] 0.02 | duvelisib 0.048 | gandotinib -0.029 | tozasertib 0.061 | doramapimod -0.024 | bafetinib 0.007 | [2] -0.056
